Data on 1 substance can be found in US7238491.

Sequences of proteins named here, by UniProt entry; tags and fusion partners are left off. A change or cut given only in a name is not applied to a line headed by its entry.
UniProt O75469: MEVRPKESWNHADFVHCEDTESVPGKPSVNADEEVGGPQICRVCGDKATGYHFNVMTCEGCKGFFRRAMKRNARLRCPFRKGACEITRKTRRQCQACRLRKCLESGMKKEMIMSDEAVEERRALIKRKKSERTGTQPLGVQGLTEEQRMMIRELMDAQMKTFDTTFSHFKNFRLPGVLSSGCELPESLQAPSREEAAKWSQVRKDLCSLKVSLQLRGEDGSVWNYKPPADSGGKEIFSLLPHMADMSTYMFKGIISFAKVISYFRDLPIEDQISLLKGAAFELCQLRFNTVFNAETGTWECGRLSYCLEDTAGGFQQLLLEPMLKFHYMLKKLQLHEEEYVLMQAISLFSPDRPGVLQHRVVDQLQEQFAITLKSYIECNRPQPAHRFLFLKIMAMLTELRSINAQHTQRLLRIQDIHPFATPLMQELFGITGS
UniProt P19793: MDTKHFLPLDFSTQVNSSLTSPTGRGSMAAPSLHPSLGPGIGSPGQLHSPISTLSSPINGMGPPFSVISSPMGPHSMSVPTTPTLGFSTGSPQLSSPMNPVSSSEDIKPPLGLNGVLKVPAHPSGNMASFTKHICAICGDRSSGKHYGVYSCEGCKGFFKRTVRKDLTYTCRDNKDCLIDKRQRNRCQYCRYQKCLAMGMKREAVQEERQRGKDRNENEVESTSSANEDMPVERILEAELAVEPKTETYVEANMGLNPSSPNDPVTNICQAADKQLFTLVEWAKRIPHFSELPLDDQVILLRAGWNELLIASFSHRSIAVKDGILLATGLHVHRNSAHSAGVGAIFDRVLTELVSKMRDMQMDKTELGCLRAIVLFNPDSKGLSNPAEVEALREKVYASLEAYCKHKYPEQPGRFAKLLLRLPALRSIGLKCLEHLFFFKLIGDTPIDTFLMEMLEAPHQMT

This experiment deals with T1, His6-PXR (polyhistidine-tagged human PXR amino acids 130-434) (human) (UniProt O75469).
T1 sequence: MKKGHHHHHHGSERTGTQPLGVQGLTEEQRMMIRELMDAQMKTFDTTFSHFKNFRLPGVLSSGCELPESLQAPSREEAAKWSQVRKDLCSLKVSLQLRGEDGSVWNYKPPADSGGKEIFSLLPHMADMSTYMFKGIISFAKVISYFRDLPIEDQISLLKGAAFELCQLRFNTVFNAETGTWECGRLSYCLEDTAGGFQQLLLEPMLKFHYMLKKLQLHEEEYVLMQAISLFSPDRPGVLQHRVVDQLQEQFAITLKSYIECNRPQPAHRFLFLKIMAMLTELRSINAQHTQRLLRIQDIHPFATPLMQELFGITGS
Description: co-expression in E. coli and co-purification on Ni chelation resin (only PXR is His-tagged), then size exclusion. Background: In gel filtration, larger molecules generally elute earlier.

No constants are given. Whether binding was seen depends on the method and setting. In cells and extracts the contact can be indirect. Some entries that bind do so weakly or less than the wild type. Tags and fused reporters may be left off the sequences shown.

Turning to “RXRα amino acids 225-462 (co-expressed with His6-PXR) (from UniProt P19793 225-462) (receptor)”, the binding result was “binds”.
